Paper PMC3738497

Molecular target: T1, IRE1-TEV-HA (murine IRE1α with a C-terminal TEV protease cleavage site and an HA epitope tag) (murine) (UniProt Q9Z2E3)
T1 sequence: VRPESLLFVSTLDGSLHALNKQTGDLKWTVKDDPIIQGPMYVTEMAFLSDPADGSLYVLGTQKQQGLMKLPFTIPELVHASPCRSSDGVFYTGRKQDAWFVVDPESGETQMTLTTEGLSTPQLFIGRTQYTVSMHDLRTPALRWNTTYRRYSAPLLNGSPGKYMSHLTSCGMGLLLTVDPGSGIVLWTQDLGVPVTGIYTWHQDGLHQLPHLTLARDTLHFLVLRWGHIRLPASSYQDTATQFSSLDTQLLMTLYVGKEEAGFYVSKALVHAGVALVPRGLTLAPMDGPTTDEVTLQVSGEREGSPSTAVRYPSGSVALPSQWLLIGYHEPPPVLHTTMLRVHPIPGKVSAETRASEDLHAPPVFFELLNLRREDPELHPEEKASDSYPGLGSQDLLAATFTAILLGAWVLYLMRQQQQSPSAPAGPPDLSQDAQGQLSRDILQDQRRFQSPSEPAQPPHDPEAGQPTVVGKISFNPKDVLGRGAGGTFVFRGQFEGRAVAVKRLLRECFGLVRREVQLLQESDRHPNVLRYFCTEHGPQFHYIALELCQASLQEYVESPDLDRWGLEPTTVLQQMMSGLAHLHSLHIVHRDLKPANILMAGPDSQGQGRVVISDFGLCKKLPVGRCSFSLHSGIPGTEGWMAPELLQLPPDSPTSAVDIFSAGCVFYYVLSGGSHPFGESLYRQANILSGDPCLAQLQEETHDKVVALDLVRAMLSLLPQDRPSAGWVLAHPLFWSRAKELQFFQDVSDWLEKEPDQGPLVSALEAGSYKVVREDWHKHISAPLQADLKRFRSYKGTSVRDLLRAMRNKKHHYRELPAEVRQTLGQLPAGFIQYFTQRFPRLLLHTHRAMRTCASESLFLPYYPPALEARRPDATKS
Assay: affinity purification with mass spectrometry; RIPA lysates of MCMV-infected (mock-infected as control) NIH-3T3 cells stably expressing IRE1-TEV-HA loaded on an anti-HA 3F10 affinity matrix; eluted by TEV protease; SDS-PAGE, silver stain; bands absent from the control lane analysed by mass spectrometry; MOI 5 in the legend, MOI 1 and 48 h in the methods

With “M50 of MCMV, expressed from the virus (murine cytomegalovirus (MCMV))” the binding was “binds”.

No constants are given. Whether binding was seen depends on the method and setting. In cells and extracts the contact can be indirect. These calls come from enrichment with a bait or labelling near it, and not all partners need be listed. Sequences can lack the tags named with a protein.
